According to publication PMC9142083:
These are yes or no findings as the source states them, for the method shown. For some assays here: Binding seen in cells or lysates may run through a third protein. Some results given as binding are weak or reduced against the parent protein; the word gives no strength. For some assays here: Tags and fused reporters may be left off the sequences shown.

How the values were obtained:
[1] = molecular target: T1, ACA8 (residues 1-180)-BK (Arabidopsis thaliana) (UniProt Q9LF79); test: two-hybrid; yeast AH109; CAM3 in pGADT7 (prey), ACA8 (residues 1-180) in pGBKT7 (bait); growth on SD/-Ade/-His/-Leu/-Trp and blue colonies with X-alpha-gal
T1 sequence: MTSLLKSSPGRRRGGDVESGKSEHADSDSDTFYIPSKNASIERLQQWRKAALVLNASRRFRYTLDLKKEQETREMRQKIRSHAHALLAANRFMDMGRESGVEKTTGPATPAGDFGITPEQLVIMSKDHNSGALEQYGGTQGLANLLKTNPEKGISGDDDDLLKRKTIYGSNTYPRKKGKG

[2] = molecular target: T2, ACA8-Nluc (Arabidopsis thaliana) (UniProt Q9LF79); test: split reporter; firefly luciferase complementation imaging (LCI) in Nicotiana leaves infiltrated with Agrobacterium GV3101; CAM3-Cluc/ACA8-Nluc against Cluc/Nluc, CAM3-Cluc/Nluc and Cluc/ACA8-Nluc
T2 sequence: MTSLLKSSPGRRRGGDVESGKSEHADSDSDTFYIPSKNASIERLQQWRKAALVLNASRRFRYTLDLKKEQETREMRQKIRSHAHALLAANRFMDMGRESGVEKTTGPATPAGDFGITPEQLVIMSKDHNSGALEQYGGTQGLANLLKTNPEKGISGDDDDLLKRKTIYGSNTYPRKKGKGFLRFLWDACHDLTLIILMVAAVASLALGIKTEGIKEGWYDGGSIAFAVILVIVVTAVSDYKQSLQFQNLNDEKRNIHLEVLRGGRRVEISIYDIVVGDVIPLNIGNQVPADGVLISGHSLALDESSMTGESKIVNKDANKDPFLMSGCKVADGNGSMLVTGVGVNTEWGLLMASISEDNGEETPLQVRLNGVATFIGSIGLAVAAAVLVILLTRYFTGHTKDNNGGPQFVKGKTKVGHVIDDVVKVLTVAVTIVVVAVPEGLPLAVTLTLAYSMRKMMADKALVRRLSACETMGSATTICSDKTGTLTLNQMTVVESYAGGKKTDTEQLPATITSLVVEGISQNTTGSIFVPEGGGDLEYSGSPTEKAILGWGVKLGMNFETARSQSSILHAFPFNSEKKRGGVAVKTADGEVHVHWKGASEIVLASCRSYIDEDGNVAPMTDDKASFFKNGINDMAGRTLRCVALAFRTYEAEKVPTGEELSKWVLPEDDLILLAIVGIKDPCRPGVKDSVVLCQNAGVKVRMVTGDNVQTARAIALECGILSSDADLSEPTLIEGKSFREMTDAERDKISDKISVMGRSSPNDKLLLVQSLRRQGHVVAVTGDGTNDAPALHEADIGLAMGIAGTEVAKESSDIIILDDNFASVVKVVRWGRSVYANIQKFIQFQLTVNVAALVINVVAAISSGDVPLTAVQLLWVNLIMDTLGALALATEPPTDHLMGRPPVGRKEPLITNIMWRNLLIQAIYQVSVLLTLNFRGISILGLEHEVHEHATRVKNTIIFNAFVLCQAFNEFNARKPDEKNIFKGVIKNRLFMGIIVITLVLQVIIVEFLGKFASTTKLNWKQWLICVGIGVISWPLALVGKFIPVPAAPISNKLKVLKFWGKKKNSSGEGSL

| binding [1] | binding [2] | Substance |
| --- | --- | --- |
| binds |  | CAM3-AD (calmodulin 3 in pGADT7) (from UniProt P0DH98 1-149) |
|  | binds | CAM3-Cluc (from UniProt P0DH98 1-149) |
